The full ranking holds about 3,200 compounds; the median of “TSA(without NAD+) / Primary screening (TSA) / delta Tm (K)” is about -0.07, and the highest 2% start at about 0.37. The list shows a part of the results.
Molecular target: NAD-dependent deacetylase Sirtuin 1 (human, UniProt Q96EB6)
Assay: primary screen, delta tm
Design: single well (n = 1)
Conditions: 10 µM
Procedure, shortened: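 Thermal shift of Sirtuin 1 measured without NAD+, compound at 10 µM (n = 1); value is ΔTm, with hits defined as ΔTm > 0.45 K or < −1.5 K. Hits retested at 5, 10, 20 µM (n = 4) and counterscreened on bovine carbonic anhydrase and ABL1 SH2 domain.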

Sequences of proteins named here, by UniProt entry; tags and fusion partners are left off. Residues count along the entry.
UniProt Q96EB6, 2-747 limits assumed: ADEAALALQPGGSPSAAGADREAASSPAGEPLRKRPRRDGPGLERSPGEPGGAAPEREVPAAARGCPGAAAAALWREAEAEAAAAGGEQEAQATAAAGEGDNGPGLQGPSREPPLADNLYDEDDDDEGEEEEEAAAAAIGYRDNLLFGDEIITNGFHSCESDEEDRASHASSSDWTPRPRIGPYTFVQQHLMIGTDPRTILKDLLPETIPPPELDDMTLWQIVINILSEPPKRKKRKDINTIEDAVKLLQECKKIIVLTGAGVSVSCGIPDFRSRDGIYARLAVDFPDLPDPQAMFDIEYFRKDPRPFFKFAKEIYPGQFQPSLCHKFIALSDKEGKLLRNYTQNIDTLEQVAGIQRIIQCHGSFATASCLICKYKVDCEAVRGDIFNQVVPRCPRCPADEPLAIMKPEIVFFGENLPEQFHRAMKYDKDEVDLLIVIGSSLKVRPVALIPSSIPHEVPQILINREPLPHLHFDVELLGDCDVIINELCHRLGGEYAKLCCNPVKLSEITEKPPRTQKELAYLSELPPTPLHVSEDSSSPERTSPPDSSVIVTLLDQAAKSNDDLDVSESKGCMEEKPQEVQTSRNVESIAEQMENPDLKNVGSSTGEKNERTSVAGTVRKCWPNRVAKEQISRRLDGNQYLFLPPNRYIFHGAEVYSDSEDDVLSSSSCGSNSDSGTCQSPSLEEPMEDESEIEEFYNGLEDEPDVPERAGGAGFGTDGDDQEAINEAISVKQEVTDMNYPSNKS

Q: How did the “TSA(without NAD+) / Primary screening (TSA) / delta Tm (K)” value turn out when `C=CCOc1ccc(C2C(C(=O)c3cccs3)=C(O)C(=O)N2CCCN2CCOCC2)cc1` (centres unmarked) was run?
A: 0.02 K

Q: With `COCc1noc(CN2CCCCC2c2cc3ccccc3[nH]2)n1` (centres unmarked) as the compound, how does the “TSA(without NAD+) / Primary screening (TSA) / delta Tm (K)” value read?
A: -0.24 K

Q: `O=C(CCc1cccnc1)Nc1ccccc1N1CCc2ccccc2C1` was tested. Which “TSA(without NAD+) / Primary screening (TSA) / delta Tm (K)” value did it give?
A: -0.31 K

Q: Which “TSA(without NAD+) / Primary screening (TSA) / delta Tm (K)” value does the source give for `N#CC1=C(N)Oc2c(ccc3ccccc23)C1c1ccccc1F` (centres unmarked) here?
A: -0.18 K

Q: Which “TSA(without NAD+) / Primary screening (TSA) / delta Tm (K)” value does the source give for `CC(C)Oc1ccc(C(=O)C2=C(O)C(=O)N(CCCN3CCOCC3)C2c2ccccc2F)cc1` (centres unmarked) here?
A: -0.23 K

Q: For `CCOCCn1ccc2cc(OC)c(F)cc2c1=O`, which “TSA(without NAD+) / Primary screening (TSA) / delta Tm (K)” value is on record?
A: -0.33 K

Q: `CCOc1ccc(C2C(C(=O)c3ccco3)=C(O)C(=O)N2CCCN2CCOCC2)cc1OCC` (centres unmarked) was tested. Which “TSA(without NAD+) / Primary screening (TSA) / delta Tm (K)” value did it give?
A: -0.08 K

Q: How did the “TSA(without NAD+) / Primary screening (TSA) / delta Tm (K)” value turn out when `Cc1noc(C)c1CC(=O)Nc1ccccc1-c1nc(C(C)C)n[nH]1` was run?
A: -0.21 K

Q: For `NCCN1CCNCC1`, which “TSA(without NAD+) / Primary screening (TSA) / delta Tm (K)” value is on record?
A: -0.24 K

Q: With `CCC(=O)Nc1cccc(C(=O)NNC(=O)c2nc(-c3ccccc3)n(-c3ccccc3)n2)c1` as the compound, how does the “TSA(without NAD+) / Primary screening (TSA) / delta Tm (K)” value read?
A: -0.02 K

Q: Which “TSA(without NAD+) / Primary screening (TSA) / delta Tm (K)” value does the source give for `NC(=O)c1ccc(OCC(=O)NCC2CN(Cc3ccccc3)CCO2)cc1` (centres unmarked) here?
A: -0.02 K

Q: Which “TSA(without NAD+) / Primary screening (TSA) / delta Tm (K)” value does the source give for `C=CCOc1ccc(C(=O)C2=C(O)C(=O)N(CCN3CCOCC3)C2c2cccs2)cc1` (centres unmarked) here?
A: -0.24 K

Q: With `O=C(CSc1nnc(-c2ccccc2Br)[nH]1)NCCN1C(=O)CSC1=O` as the compound, how does the “TSA(without NAD+) / Primary screening (TSA) / delta Tm (K)” value read?
A: 0.09 K

Q: For `COc1ccc(-c2noc(CCC(=O)OCc3cc(=O)oc4cc(NC(C)=O)ccc34)n2)cc1`, which “TSA(without NAD+) / Primary screening (TSA) / delta Tm (K)” value is on record?
A: 0.15 K

Q: `COc1ccc(NC(=O)COc2ccc(C(=O)NCC34CC5CC(CC(C5)C3)C4)cc2OC)cc1` was tested. Which “TSA(without NAD+) / Primary screening (TSA) / delta Tm (K)” value did it give?
A: -0.34 K

Q: Which “TSA(without NAD+) / Primary screening (TSA) / delta Tm (K)” value does the source give for `Nn1c(S)nnc1COc1ccc(F)cc1` here?
A: -0.12 K

Q: `O=C1NCCN(C(=O)c2ccc[nH]2)C1c1ccc(C(F)(F)F)cc1` (centres unmarked) was tested. Which “TSA(without NAD+) / Primary screening (TSA) / delta Tm (K)” value did it give?
A: -0.28 K

Q: `Fc1ccc(-c2csc3ncnc(N4CCN(c5nccs5)CC4)c23)cc1` was tested. Which “TSA(without NAD+) / Primary screening (TSA) / delta Tm (K)” value did it give?
A: -0.14 K

Q: For `NCC(=O)OCc1ccccc1`, which “TSA(without NAD+) / Primary screening (TSA) / delta Tm (K)” value is on record?
A: -0.12 K

Q: For `CC(C)(O)Cn1cnc2c(N3CCOCC3)ncnc21`, which “TSA(without NAD+) / Primary screening (TSA) / delta Tm (K)” value is on record?
A: 0.02 K

Q: Which “TSA(without NAD+) / Primary screening (TSA) / delta Tm (K)” value does the source give for `Cc1ccc(NC(=O)COC(=O)C23CC4CC(C2)CC(c2ccccc2)(C4)C3)cc1S(=O)(=O)N(C)C` here?
A: 0.12 K

Q: With `Sc1ncc[nH]1` as the compound, how does the “TSA(without NAD+) / Primary screening (TSA) / delta Tm (K)” value read?
A: 0.03 K

Q: For `Cc1nc2sccn2c1CNCc1ccccc1`, which “TSA(without NAD+) / Primary screening (TSA) / delta Tm (K)” value is on record?
A: -0.01 K

Q: Which “TSA(without NAD+) / Primary screening (TSA) / delta Tm (K)” value does the source give for `Cc1cc(=O)oc2cc(NC(=O)c3cccc(S(=O)(=O)N(C)c4ccccc4)c3)ccc12` here?
A: -0.17 K

Q: For `CC(=O)N1N=C(c2ccccc2)CC1c1ccc(Br)cc1` (centres unmarked), which “TSA(without NAD+) / Primary screening (TSA) / delta Tm (K)” value is on record?
A: -0.02 K

Q: How did the “TSA(without NAD+) / Primary screening (TSA) / delta Tm (K)” value turn out when `COC(=O)c1ccc(C2NC(=O)NC3=C2C(=O)N(CCO)C3)cc1` (centres unmarked) was run?
A: 0.07 K

Q: How did the “TSA(without NAD+) / Primary screening (TSA) / delta Tm (K)” value turn out when `CCCCc1ccc(NC(=O)c2cccc(S(=O)(=O)N(C)c3cccc(Cl)c3)c2)cc1` was run?
A: 0.58 K

Q: For `CC(C)(C)NCCN`, which “TSA(without NAD+) / Primary screening (TSA) / delta Tm (K)” value is on record?
A: -0.05 K

Q: How did the “TSA(without NAD+) / Primary screening (TSA) / delta Tm (K)” value turn out when `Cc1nn(C)c2ncc(S(=O)(=O)N(C)c3cccc(C#N)c3)cc12` was run?
A: -0.12 K

Q: Which “TSA(without NAD+) / Primary screening (TSA) / delta Tm (K)” value does the source give for `Nc1cc(C(F)(F)F)ccc1O` here?
A: -0.88 K

Q: Which “TSA(without NAD+) / Primary screening (TSA) / delta Tm (K)” value does the source give for `CN(c1ccc(Oc2ccccc2)cc1)S(=O)(=O)c1cc(C(N)=O)n(C)c1` here?
A: -0.22 K

Q: How did the “TSA(without NAD+) / Primary screening (TSA) / delta Tm (K)” value turn out when `Cc1nc(N2CCN(C(=O)CCc3ccccc3)CC2)c2cc[nH]c2n1` was run?
A: -0.05 K

Q: `CCOc1cccc(C=C2C(=O)NC(=S)NC2=O)c1` was tested. Which “TSA(without NAD+) / Primary screening (TSA) / delta Tm (K)” value did it give?
A: 0.15 K

Q: `CC(CNS(=O)(=O)c1ccc(CCC(=O)O)cc1)c1nc2ccccc2n1C(F)F` (centres unmarked) was tested. Which “TSA(without NAD+) / Primary screening (TSA) / delta Tm (K)” value did it give?
A: -0.03 K

Q: `CCC(C)c1ccc(C(Nc2ccc3nnnn3n2)C(C)C)cc1` (centres unmarked) was tested. Which “TSA(without NAD+) / Primary screening (TSA) / delta Tm (K)” value did it give?
A: 0.16 K

Q: With `NC(=O)C1CN(c2nc(C3CC3)nc3sc4c(c23)CCCC4)CCO1` (centres unmarked) as the compound, how does the “TSA(without NAD+) / Primary screening (TSA) / delta Tm (K)” value read?
A: -0.13 K

Q: Which “TSA(without NAD+) / Primary screening (TSA) / delta Tm (K)” value does the source give for `CC(C)CNc1ncnc2c1oc1ccccc12` here?
A: 0.02 K

Q: Which “TSA(without NAD+) / Primary screening (TSA) / delta Tm (K)” value does the source give for `CCCCn1nnnc1COC(=O)c1cccc(S(=O)(=O)N(C)c2cccc(Cl)c2)c1` here?
A: 0.03 K

Q: How did the “TSA(without NAD+) / Primary screening (TSA) / delta Tm (K)” value turn out when `CCN(CC)c1ncnc2c1oc1ccccc12` was run?
A: 0.17 K

Q: For `O=C(O)c1ccc(S(=O)(=O)N2CCC(c3ccccc3)C2)c(F)c1` (centres unmarked), which “TSA(without NAD+) / Primary screening (TSA) / delta Tm (K)” value is on record?
A: -0.17 K

Q: With `COc1cc(CN(C)C(=O)Cn2cnc3ccccc3c2=O)ccc1OCc1ccccc1` as the compound, how does the “TSA(without NAD+) / Primary screening (TSA) / delta Tm (K)” value read?
A: 0.36 K

Q: With `CCC(=O)NC(C)C(=O)NCC1CCCO1` (centres unmarked) as the compound, how does the “TSA(without NAD+) / Primary screening (TSA) / delta Tm (K)” value read?
A: -0.22 K

Q: `NS(=O)(=O)Cc1cccc(Cl)c1` was tested. Which “TSA(without NAD+) / Primary screening (TSA) / delta Tm (K)” value did it give?
A: 0.06 K

Q: `NC(=O)C1CCN(C(=O)c2ccc(-c3ccc(Cl)cc3)s2)C1` (centres unmarked) was tested. Which “TSA(without NAD+) / Primary screening (TSA) / delta Tm (K)” value did it give?
A: -0.05 K

Q: With `Cc1ccc([N+](=O)[O-])cc1S(=O)(=O)Nc1ccc(C(=O)OC(C)C(=O)NC23CC4CC(CC(C4)C2)C3)cc1` (centres unmarked) as the compound, how does the “TSA(without NAD+) / Primary screening (TSA) / delta Tm (K)” value read?
A: 0.86 K

Q: With `CCC(=O)N(c1nn(CN(C)Cc2c(C)nn(C3CCS(=O)(=O)C3)c2C)c(=S)s1)C1CC1` (centres unmarked) as the compound, how does the “TSA(without NAD+) / Primary screening (TSA) / delta Tm (K)” value read?
A: -0.07 K

Q: Which “TSA(without NAD+) / Primary screening (TSA) / delta Tm (K)” value does the source give for `O=C(Cc1c(Cl)cccc1Cl)Nc1ccc(N2CCN(Cc3ccccc3)CC2)cc1` here?
A: 0.08 K
